Reference: paper PMC9792466
No constants are given. Whether binding was seen depends on the method and setting. Binding seen in cells or lysates may run through a third protein. Some entries that bind do so weakly or less than the wild type.

By UniProt entry, the sequences of proteins in these tests, tags left out.
UniProt Q8BUN5: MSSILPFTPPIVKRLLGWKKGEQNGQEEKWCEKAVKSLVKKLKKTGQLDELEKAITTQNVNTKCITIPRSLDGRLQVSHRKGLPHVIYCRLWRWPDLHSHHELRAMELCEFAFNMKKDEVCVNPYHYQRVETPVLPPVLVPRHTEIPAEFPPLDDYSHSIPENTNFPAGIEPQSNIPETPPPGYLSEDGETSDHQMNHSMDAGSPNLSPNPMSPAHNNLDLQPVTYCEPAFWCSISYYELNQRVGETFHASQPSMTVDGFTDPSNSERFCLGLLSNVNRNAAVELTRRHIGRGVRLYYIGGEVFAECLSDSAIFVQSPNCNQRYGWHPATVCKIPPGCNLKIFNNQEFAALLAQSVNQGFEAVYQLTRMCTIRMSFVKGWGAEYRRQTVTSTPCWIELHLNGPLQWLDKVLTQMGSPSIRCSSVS

Target: T1, WW domain-containing oxidoreductase (WWOX) (mouse (endogenous in 266-6)) (UniProt Q91WL8)
T1 sequence: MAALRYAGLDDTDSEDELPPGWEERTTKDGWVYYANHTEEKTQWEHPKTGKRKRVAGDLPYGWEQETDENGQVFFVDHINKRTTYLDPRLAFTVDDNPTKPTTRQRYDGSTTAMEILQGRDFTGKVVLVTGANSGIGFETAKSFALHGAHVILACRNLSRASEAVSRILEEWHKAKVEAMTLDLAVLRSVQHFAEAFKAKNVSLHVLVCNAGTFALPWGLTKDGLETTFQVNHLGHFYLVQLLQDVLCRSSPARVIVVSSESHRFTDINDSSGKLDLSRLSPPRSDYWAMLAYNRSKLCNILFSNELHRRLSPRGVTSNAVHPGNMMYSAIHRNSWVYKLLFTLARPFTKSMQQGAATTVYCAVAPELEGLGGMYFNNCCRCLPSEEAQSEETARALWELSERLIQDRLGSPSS
Assay: co-IP; endogenous WWOX immunoprecipitated with monoclonal mouse anti-WWOX cocktail antibodies and protein A/G plus agarose beads, overnight at 4 °C, from whole-cell lysates of 266-6 KrasG12D cells not activated or activated with doxycycline for 24 h; lysis buffer 50 mM Tris pH 7.5, 150 mM NaCl, 10% glycerol, 1% NP-40; IgG as control; immunoblot of the precipitate

binding: binds
Substance: SMAD3 (from UniProt Q8BUN5 1-425)
